# Screening data, single-dose tests

Protein sequences, listed by entry. Tags and fused reporters are not part of them. Residues count along the entry.
UniProt P9WPC5, whole entry: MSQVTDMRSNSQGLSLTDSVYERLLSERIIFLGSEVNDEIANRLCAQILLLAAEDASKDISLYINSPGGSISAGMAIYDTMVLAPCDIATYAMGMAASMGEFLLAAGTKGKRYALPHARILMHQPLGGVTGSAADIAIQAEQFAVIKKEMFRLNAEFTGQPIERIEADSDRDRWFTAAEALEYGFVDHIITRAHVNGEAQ
UniProt P9WPC3, whole entry partner: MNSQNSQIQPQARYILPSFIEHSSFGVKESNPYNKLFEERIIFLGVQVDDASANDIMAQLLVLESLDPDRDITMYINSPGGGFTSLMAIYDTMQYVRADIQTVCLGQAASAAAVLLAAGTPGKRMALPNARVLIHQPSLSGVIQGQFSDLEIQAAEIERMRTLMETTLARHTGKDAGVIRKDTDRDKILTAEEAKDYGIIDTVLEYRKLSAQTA
UniProt I6X8D2, whole entry: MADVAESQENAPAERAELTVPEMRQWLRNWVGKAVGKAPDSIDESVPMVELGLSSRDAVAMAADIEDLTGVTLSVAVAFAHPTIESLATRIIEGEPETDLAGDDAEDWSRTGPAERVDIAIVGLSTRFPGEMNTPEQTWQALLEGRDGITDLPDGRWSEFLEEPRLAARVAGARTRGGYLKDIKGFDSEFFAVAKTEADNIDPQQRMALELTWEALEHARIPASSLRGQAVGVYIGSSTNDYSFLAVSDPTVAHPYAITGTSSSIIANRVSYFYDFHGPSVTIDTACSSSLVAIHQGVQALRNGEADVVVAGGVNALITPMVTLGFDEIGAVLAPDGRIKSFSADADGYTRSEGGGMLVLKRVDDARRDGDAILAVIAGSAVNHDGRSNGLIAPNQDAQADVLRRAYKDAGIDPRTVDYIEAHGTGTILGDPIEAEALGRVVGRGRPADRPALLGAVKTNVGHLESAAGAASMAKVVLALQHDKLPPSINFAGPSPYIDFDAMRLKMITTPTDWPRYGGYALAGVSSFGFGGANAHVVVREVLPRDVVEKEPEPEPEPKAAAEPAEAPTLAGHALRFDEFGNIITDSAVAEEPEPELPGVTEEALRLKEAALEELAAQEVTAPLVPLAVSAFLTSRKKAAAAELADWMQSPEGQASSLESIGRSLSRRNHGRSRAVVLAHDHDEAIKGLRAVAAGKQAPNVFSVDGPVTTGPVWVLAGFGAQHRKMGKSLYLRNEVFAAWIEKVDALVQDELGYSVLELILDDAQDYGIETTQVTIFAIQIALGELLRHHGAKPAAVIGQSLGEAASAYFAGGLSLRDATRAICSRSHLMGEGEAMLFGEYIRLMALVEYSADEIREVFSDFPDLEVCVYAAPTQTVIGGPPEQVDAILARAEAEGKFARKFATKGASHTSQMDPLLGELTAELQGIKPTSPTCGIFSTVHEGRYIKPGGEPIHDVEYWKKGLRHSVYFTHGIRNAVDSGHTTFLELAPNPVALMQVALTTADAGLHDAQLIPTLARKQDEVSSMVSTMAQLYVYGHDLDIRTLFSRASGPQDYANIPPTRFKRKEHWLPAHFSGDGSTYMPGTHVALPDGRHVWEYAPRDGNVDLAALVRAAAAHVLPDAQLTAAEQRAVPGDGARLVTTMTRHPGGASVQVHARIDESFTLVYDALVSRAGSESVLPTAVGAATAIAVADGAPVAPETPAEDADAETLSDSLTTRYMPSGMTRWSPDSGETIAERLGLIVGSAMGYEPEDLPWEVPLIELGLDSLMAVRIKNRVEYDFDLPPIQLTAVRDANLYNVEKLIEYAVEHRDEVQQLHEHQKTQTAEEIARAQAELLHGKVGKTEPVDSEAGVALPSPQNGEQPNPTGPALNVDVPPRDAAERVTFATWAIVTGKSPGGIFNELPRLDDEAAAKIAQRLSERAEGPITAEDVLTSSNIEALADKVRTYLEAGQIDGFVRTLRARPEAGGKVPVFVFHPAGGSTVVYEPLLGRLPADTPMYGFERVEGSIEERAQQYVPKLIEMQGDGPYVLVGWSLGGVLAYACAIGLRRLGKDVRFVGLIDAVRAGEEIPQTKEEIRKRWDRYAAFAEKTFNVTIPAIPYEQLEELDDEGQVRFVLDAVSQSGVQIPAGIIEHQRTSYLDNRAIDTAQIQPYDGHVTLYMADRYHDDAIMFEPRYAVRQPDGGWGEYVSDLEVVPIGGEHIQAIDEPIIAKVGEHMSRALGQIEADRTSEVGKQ
UniProt P9WNZ1, whole entry: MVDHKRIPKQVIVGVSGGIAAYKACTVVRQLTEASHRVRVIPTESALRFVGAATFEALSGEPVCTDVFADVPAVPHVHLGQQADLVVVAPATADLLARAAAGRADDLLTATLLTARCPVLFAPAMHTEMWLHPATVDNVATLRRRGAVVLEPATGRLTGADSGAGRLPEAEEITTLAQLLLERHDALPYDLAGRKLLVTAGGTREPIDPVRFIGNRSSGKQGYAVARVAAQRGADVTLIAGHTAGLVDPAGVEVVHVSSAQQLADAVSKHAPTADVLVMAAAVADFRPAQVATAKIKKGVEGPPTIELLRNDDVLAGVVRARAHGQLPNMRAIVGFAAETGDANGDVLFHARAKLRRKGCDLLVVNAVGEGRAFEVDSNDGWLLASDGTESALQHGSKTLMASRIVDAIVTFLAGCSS
UniProt A4I591, 1-473: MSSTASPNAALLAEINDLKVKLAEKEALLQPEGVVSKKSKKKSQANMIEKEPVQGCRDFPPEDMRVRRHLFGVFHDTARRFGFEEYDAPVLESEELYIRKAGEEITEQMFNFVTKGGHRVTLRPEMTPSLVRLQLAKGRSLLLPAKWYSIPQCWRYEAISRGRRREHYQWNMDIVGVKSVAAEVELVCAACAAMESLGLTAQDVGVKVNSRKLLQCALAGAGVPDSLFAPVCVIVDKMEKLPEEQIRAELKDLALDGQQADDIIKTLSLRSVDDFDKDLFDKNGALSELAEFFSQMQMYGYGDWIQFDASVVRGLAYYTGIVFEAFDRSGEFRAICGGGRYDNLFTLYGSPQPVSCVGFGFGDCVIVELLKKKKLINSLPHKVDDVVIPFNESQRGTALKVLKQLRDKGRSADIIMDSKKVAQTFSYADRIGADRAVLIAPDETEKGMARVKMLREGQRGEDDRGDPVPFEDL
UniProt Q4DA54, 1-478: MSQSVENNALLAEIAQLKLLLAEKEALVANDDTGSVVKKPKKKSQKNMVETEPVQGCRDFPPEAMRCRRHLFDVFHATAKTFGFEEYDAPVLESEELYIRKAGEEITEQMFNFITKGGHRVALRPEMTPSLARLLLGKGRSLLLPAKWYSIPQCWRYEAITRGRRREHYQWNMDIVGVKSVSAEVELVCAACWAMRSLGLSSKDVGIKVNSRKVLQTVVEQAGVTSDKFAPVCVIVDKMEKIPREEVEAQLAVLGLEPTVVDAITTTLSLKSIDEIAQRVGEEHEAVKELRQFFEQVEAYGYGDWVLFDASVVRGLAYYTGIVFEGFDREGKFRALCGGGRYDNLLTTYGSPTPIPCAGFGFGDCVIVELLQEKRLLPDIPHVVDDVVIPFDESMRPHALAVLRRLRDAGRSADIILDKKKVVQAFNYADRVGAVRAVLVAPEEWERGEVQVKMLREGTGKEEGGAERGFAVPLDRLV

A: 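ClpP1P2, Mycobacterium tuberculosis (UniProt P9WPC5 and UniProt P9WPC3). Protease assay of ClpP1P2, read by the AMC dye that it sets free. Concentration: 50 µM. Direction is inferred from only a few compounds that gave an IC50; most scored high, so higher reads as stronger inhibition. Most other retested compounds had strongly negative values. About 69,000 compounds were tested under these conditions; 0.015% (about 10) showed 50% or more at least once.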
B: 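Polyketide synthase Pks13, Mycobacterium tuberculosis (UniProt I6X8D2). Enzyme assay of the thioesterase domain of polyketide synthase 13; the read-out is not stated. Compounds at 30 µM. The record gives no direction; the compounds picked for IC50 retests had high values, so higher reads as stronger inhibition. Of about 67,000 compounds tested this way, about 300 (0.46%) reached 50% or more in at least one test.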
C: 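Enzyme assay of CoaBC with a phosphate dye (Biomol Green) read at 650 nm. Target: Coenzyme A biosynthesis protein CoaBC, Mycobacterium tuberculosis (UniProt P9WNZ1). Concentration: 30 µM. Higher reads as stronger inhibition, judged from the few compounds that gave an IC50. Most strong results did not repeat in a second test. About 67,000 compounds were tested under these conditions; 0.06% (about 40) showed 50% or more at least once.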
D: 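Histidine-tRNA ligase, Leishmania infantum (UniProt A4I591). Enzyme assay of histidyl-tRNA synthetase; the read-out is not stated. Tested at 30 µM. Direction is inferred from retests: higher values go with stronger inhibition. The assay is labelled LdHisRS but filed under L. infantum. Size under these conditions: about 69,000 compounds, about 410 of them at 50% or above in at least one test.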
E: 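Enzyme assay of histidyl-tRNA synthetase; the read-out is not stated. Target: Histidine-tRNA ligase, Trypanosoma cruzi CL Brener (UniProt Q4DA54). Concentration: 30 µM. The record gives no direction; compounds that gave an IC50 in retests scored well above the rest, so higher reads as stronger inhibition. Size under these conditions: about 69,000 compounds, about 31 of them at 50% or above in at least one test.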

Results are given as percent effect. The record does not define 0% and 100%; most values in the screen are far below 50% and negative numbers occur (in some assays of this library far below -100). This is an unselected part of the compounds tested. Two or more numbers in one place are separate tests of the same structure; such repeats can differ widely.

* Cc1cc(C(F)(F)F)n2nc(C3CCN(S(C)(=O)=O)CC3)cc2n1 | A: -9.425%; B: 1.803%; C: -6.045%; D: 8.696%; E: 4.545%
* CC(C)Oc1ccc(CNC(=O)c2cc(C(N)=O)cs2)cc1F | A: -7.327%; D: 7.5%; E: 0%
* Cc1ccc(C(=O)N2CC(C(N)=O)O[C@H](C)C2)c(C)c1 (stereo partly specified) | A: -2.75%; B: -0.5696%; C: 2.746%; D: -1.408%; E: 1.657%
* Fc1ccccc1OCCN1CCCCC1Cn1cncn1 (stereo unspecified) | A: -16.72%; B: -5.325%; C: -2.678%; D: 7.895%; E: 1.453%
* COc1ccc(N2CCN(C(=O)c3cc(=O)c(OC)c[nH]3)CC2)cc1 | A: -2.78%; B: -10.67%; C: -2.358%; D: 20.88%; E: 5.155%
* CCC(=O)c1ccc(OCC(=O)NCC2CCCO2)cc1 (stereo unspecified) | A: -1.927%; B: -29.39%; C: -5.645%; D: 23.68%; E: 6.145%
* Cc1ccc(S(=O)(=O)N2CCc3nc(C4CCNCC4)ncc3C2)cc1 | A: 2.573%; B: -51.9%; C: 1.944%; D: 47.22%; E: 21.08%
* COCCSc1ccc(-n2ccnc2)nn1 | A: 3.592%; B: -16.05%; C: -0.6274%; D: -3.39%; E: -1.463%
* CCc1n[nH]c(C2CN(C(=O)c3ccnc(C4CC4)n3)CCO2)n1 (stereo unspecified) | A: -25.81%; B: -11.86%; C: 2.872%; D: 0.885%; E: 3.79%
* CS(=O)(=O)N1CCc2nc(NC(=O)Nc3c(F)cccc3F)sc2C1 | A: -1.051%; B: -6.736%; C: -5.33%; D: 19.23%; E: 4.959%
* Cn1ccnc1CNC1CCCOc2c1ccc1ccccc21 (stereo unspecified) | A: -3.696%; B: -17.32%; C: 3.125%; D: 10.11%; E: 6.736%
* CC(NC(=O)NCCCn1cccn1)c1ccc2c(c1)OCCCO2 (stereo unspecified) | A: -12.72%; B: -17.64%; C: 6.351%; D: -5.505%; E: 2.041%
* CN(C)[C@@H]1CCN(S(=O)(=O)C2CC2)[C@H]1Cc1ccccc1 | A: 7.044%; B: -7.797%; C: 0.4878%; D: -13.21%; E: 5.556%
* CCC(CC)NC(=O)c1ccc2nnc(C3CCN(C(C)=O)C3)n2c1 (stereo unspecified) | A: 14.91%; B: -6.051%; C: 1.025%; D: -18%; E: 3.448%
* CC(C)CCc1n[nH]c(C(=O)O)c1Cl | A: 21.31%; B: -12.8%; C: 20.1% & 46.23%; D: -3.297%; E: 7.216%
* CC(C)N(C)C(=O)C1=NOC2(CCN(C(=O)c3ccncc3)C2)C1 (stereo unspecified) | A: -4.146%; B: -12.22%; C: 7.097%; D: 3.81%; E: 4.132%
* Cc1cc(C)c(C(=O)N(C)CCN(C)C(=O)c2[nH]c(C)cc2C)[nH]1 | A: 3.415%; B: -11.87%; C: -1.146%; D: 6.218%; E: 11.6%
* CCc1ccc(C(=O)Nc2cccc(CN3CCCC3C(N)=O)c2)cc1 (stereo unspecified) | A: 6.262%; B: 1.573%; C: -23.97%; D: 22.32%; E: 16.67%
* O=C(N[C@@H]1CN(Cc2ccccn2)[C@@H]2COC[C@@H]21)C1CCC1 | A: -12.91%; B: -11.76%; C: 1.474%; D: -0.885%; E: -1.075%
* Cc1cc(-n2cncn2)n2ncnc2n1 | A: -4.175%; B: 1.407%; C: 1.104%; D: 16.49%; E: 10.4%

The last 2 entries again:

| structure | A | B | C | D | E |
|---|---|---|---|---|---|
| `O=C(N[C@@H]1CN(Cc2ccccn2)[C@@H]2COC[C@@H]21)C1CCC1` | -12.91 | -11.76 | 1.474 | -0.885 | -1.075 |
| `Cc1cc(-n2cncn2)n2ncnc2n1` | -4.175 | 1.407 | 1.104 | 16.49 | 10.4 |

Measurements from “University of Dundee, Small-Polar-MMV Screening Library” (2021), ChEMBL document CHEMBL3988442.